These are yes or no findings as the source states them, for the method shown. Binding seen in cells or lysates may run through a third protein. Some binding calls cover weakened binding; strength is not graded here.

Protein sequences, listed by entry. Tags and fused reporters are not part of them. Lines headed by an entry give the natural chain unless they say otherwise; changes in a name come on top. Chains listed by the source or under a name are the forms on record and can include a tag or linker. Residues count along the entry.
UniProt P51617: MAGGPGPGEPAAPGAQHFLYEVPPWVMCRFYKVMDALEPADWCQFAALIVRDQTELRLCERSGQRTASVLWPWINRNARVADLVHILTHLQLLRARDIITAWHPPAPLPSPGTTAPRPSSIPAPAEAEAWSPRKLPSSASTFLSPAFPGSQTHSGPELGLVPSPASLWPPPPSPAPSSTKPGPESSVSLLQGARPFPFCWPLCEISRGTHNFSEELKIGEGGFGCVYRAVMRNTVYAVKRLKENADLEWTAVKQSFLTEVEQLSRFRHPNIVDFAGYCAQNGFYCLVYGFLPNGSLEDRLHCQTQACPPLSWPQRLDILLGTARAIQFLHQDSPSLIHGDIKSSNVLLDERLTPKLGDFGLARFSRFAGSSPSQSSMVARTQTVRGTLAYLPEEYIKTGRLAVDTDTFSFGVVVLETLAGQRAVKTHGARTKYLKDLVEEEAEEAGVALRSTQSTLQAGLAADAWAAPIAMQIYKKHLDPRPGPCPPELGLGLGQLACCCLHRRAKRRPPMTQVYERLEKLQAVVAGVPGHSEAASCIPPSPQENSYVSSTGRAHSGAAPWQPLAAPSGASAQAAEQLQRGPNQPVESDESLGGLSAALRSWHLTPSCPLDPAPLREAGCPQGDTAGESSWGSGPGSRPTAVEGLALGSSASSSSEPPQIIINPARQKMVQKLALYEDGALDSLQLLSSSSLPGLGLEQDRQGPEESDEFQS
endogenous PINK1 (HEK293) (Q9BXM7, residues 78-581): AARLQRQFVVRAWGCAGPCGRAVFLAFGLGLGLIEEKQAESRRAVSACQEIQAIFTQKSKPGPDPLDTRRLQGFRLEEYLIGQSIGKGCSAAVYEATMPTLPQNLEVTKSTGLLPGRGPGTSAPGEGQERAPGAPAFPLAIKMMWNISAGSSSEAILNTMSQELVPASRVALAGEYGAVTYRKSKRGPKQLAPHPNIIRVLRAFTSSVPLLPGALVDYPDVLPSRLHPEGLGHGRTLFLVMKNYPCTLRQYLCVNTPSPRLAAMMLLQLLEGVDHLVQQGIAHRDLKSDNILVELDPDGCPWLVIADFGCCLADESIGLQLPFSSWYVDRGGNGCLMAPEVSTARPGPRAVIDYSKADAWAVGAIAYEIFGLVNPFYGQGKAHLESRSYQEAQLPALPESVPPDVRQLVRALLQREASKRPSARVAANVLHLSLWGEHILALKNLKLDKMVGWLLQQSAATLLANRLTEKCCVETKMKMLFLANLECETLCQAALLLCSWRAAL
Myc-tagged kinase-deficient hPINK1 mutant (pBOS-3X-myc-hPINK1-KD) (Q9BXM7, form named): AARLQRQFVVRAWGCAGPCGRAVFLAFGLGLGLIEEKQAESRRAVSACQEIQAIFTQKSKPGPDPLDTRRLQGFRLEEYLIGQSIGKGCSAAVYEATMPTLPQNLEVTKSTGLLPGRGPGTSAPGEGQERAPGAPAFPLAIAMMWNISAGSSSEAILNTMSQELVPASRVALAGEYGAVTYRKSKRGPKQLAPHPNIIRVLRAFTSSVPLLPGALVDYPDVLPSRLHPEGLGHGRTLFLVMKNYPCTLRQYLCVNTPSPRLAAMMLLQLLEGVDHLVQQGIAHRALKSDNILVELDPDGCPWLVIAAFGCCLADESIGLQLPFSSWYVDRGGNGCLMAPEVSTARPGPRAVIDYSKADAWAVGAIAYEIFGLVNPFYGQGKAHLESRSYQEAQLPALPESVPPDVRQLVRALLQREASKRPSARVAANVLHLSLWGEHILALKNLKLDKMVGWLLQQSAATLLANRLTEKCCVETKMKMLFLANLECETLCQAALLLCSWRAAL
UniProt Q62406: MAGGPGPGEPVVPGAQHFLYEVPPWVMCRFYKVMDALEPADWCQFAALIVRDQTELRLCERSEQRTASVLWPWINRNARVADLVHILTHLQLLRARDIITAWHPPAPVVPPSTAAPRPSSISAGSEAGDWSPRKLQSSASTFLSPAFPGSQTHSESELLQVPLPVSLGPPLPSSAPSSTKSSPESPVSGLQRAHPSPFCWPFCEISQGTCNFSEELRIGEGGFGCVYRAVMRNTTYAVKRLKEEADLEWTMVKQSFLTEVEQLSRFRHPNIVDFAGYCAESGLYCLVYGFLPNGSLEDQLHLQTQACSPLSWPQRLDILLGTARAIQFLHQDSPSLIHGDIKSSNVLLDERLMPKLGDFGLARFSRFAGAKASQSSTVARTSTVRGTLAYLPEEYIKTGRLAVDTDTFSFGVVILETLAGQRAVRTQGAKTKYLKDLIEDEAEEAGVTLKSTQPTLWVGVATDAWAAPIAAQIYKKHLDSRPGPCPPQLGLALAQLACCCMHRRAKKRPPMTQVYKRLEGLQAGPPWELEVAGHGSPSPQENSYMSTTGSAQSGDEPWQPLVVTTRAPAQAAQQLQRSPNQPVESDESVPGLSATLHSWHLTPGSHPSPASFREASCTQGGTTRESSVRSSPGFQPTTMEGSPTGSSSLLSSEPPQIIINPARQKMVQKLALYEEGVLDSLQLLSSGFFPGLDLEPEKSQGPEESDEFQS

Here are results for four substances from article PMC3533909.

The target in assay [1] is Flag-tagged IL-1 receptor-associated kinase 1 (IRAK1) (UniProt P51617). Briefly: co-IP; HEK293 cells transfected for 48 hours, normal growth conditions; lysates in 1% Nonidet P40 lysis buffer (50 mM Tris pH 7.5, 150 mM NaCl), antibody overnight at 4°C, protein A-sepharose.
The target of assay [2] is T1, endogenous TRAF6 (mouse embryonic fibroblasts) (mouse (endogenous in MEFs)) (UniProt P70196).
T1 sequence: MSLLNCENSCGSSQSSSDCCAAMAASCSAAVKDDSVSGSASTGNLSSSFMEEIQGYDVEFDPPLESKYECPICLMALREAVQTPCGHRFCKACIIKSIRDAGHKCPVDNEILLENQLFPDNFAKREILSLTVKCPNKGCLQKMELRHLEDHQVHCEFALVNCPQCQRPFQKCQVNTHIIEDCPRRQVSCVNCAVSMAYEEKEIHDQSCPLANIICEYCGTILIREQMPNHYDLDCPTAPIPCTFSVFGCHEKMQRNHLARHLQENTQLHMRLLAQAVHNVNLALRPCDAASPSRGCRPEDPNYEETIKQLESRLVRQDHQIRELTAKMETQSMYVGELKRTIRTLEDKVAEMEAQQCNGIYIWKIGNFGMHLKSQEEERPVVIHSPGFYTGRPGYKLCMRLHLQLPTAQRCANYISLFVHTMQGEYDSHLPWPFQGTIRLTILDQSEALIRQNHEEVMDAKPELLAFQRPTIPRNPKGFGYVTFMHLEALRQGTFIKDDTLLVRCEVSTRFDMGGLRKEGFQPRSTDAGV
The experiment in a line: co-IP; endogenous proteins, lysates of PINK1-/- and PINK1+/+ mouse embryonic fibroblasts, 50 ng/ml IL-1β for the indicated times, with or without 50 μM MG132 for 30 minutes beforehand.

In assay [3] the target is endogenous IRAK1 (HEK293) (human (endogenous in HEK293)) (UniProt P51617). The experiment in a line: co-IP; endogenous proteins, HEK293 cell lysates; preimmune IgG as control; 1% Nonidet P40 lysis buffer, 4°C.

As for “Myc-tagged kinase-deficient hPINK1 mutant (pBOS-3X-myc-hPINK1-KD) (from UniProt Q9BXM7 78-581)”, the binding entry in assay [1] was “binds”.

With “endogenous IRAK1 (mouse embryonic fibroblasts) (from UniProt Q62406 1-710)”, the binding result in assay [2] is given as “binds”.

Regarding “Myc-tagged wild-type hPINK1 (pBOS-3X-myc-hPINK1-WT) (from UniProt Q9BXM7 78-581)”, the binding entry in assay [1] is given as “binds”.

As for “endogenous PINK1 (HEK293) (from UniProt Q9BXM7 78-581)”, the binding entry in assay [3] was “binds”.
